Results from PubChem BioAssay AID588499 (NMMLSC, 2011).
About 610 (0.17%) of roughly 360,000 compounds were called active. Inconclusive means that the source gave no clear call. Such entries were picked first, then a sample of the others. Cut-off read from the data, not from the text of the source: active = inhibition above about 30%; inconclusive = no clear call, values can overlap the other calls; inactive = below that.

Each compound was assayed on Botulinum neurotoxin type A light chain protease (Clostridium botulinum A str. ATCC 3502) (assay: blockers of BoNT/A LC substrate cleavage – biochemical, flow cytometry, MLPCN library, primary screen (AID 588499; note: plate controls were buffer without enzyme for full effect and enzyme alone for no effect)). Settings: multiplex microsphere protease substrate cleavage, at 10 µM, active compounds read high.

SMILES	inhibition
O=C(C[n+]1ccccc1)Nc1ccccc1C(F)(F)F	inconclusive: 2.9%
COc1ccc(/C=C(/NC(=O)c2ccccc2)c2nc3ccccc3[nH]2)cc1OC	inactive: 0.3%
Cc1cc(C(=O)Nc2ccc(S(=O)(=O)Nc3onc(C)c3C)cc2)c(C)o1	active: 30.4%
CCOC(=O)c1c(C)c(C(=O)Nc2ccc3c(c2)OCCO3)c(C)n1C	inconclusive: -10%
Cc1cc(C)cc(C(=O)N2CCCCCC2)c1	inactive: -0.7%
CCOC(=O)c1c(NC(=O)NC(C)(C)C)sc2c1CCN(C)C2	inconclusive: 22.5%
CSc1sc(-c2n[nH]c(=S)n2C)c2c1C=CCC2	inconclusive: -5%
Cc1ccsc1/C=C/C1=Cc2c(sc(NC(=O)CSc3n[nH]c(N)n3)c2C#N)C(C)(C)C1	active: 44.1%
c1ccc(-c2csc(-c3ccc(-c4csnn4)cc3)n2)cc1	inconclusive: -44%
CC(=O)NCCC(=O)N1CCCC(N(C)CCc2ccccc2)C1 (stereo not given)	inconclusive: 4.2%
O=C(CSc1nnc(-c2ccccc2)n1-c1ccccc1)c1cccs1	inconclusive: -3.1%
N/C(=N\c1nc2ccccc2o1)NC(=O)c1ccccc1Br	inconclusive: -4.9%
COc1ccc(C2CC(c3ccccc3)=NN2S(=O)(=O)c2ccccc2)c(OC)c1 (stereo not given)	inactive: -0.9%
COC(=O)Nc1ccc2c(c1)ncn2C1CCCCC1	inconclusive: 0.7%
CC(C)CNC(=O)C1C2C=CC(C2)C1C(=O)O (stereo not given)	inconclusive: -0.1%
CSC1=N/C(=C\c2ccc(C)s2)C(=O)S1	inactive: 0.3%
COc1ccc(-n2c(C)nc3cc(C(=O)NCCN4CCOCC4)ccc32)cc1	inconclusive: 2.2%
FC(F)(F)c1cccc(Oc2ccc3c(C(F)(F)F)cc(C(F)(F)F)nc3n2)c1	inconclusive: 1.3%
Cc1nnc(NC(=O)CSc2ncnc3scc(-c4ccccc4)c23)s1	inconclusive: 1%
Cc1nnc(NC(=O)CSc2nnc3c(n2)[nH]c2ccc(Br)cc23)s1	inactive: -1.8%
CCCCn1c(N)c(N(CC(C)C)C(=O)c2ccc(COc3ccccc3)o2)c(=O)[nH]c1=O	inactive: -1.9%
C=CCn1c(SCCN2CCCCC2)nc2c1c(=O)[nH]c(=O)n2C	inactive: -0.5%
COC(=O)c1cn[nH]c1NC(=S)Nc1ccc(C)cc1Cl	inconclusive: -0.9%
O=C(Cn1cnc2ccccc2c1=O)NCCC(=O)N1CCN(c2ccccc2)CC1	inconclusive: -1%
COc1ccc(S(=O)(=O)Nc2cc3c4c(oc3c3ccccc23)CC(C)(C)CC4=O)cc1	inconclusive: -6.1%

Three compounds from above, arranged by molar mass, low to high.
SMILES	inhibition
CC(C)CNC(=O)C1C2C=CC(C2)C1C(=O)O (stereo not given)	inconclusive: -0.1%
COc1ccc(-n2c(C)nc3cc(C(=O)NCCN4CCOCC4)ccc32)cc1	inconclusive: 2.2%
COc1ccc(S(=O)(=O)Nc2cc3c4c(oc3c3ccccc23)CC(C)(C)CC4=O)cc1	inconclusive: -6.1%
